Experimental data as given in patent US8247610B2, “Amine linked modulators of γ-secretase” (Janssen Pharmaceutica N.V., priority 2007, dated 2012).
Structures were worked out from names or drawings and are uncertain.

Target: γ-secretase (Homo sapiens, UniProt P49768)
Assay: Screening for γ-secretase-modulating activity in SKNBE2 cells carrying the APP 695 wild type
Conditions: SKNBE2 cells carrying APP 695 wild type
Description: Screening of the Compounds of the Invention for γ-Secretase-Modulating Activity
Screening was carried out using SKNBE2 cells carrying the APP 695—wild type, grown in DMEM/NUT-mix F12 (HAM) provided by Gibco (cat no. 31330-38) containing 5% Serum/Fe supplemented with 1% non-essential amino acids.
Cells were grown to near confluency.
The screening was performed using the assay as described in Citron et al (1997) Nature Medicine 3: 67.

Structure (SMILES): CC(C)CC(C(=O)O)c1cc(-c2ccc(C(F)(F)F)cc2)cc(N(CC(C)C)c2ccc(Cl)cn2)c1 (stereo not shown)
- EC50: 210 nM
